The whole screen tested about 1,000 compounds, of which fewer than 10 were called active.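 How the source made its calls: active means fitted half-maximal concentration no higher than twice the top valid tested dose, with signal falling; inconclusive means flat curve with 30 to 70% inhibition, or poor fit; inactive means the rest.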 The list shows a part of the results. Potency and affinity values are given separately.
Each compound was assayed against Golgi-associated PDZ and coiled-coil motif-containing protein (Homo sapiens) (UniProt Q9HD26) (assay: blockers of CAL PDZ–TMR peptide complex – biochemical, fluorescence polarization, untagged CAL PDZ, cherry-pick, set 2, dose response (AID 602254;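 further: 0% = DMSO neutral control and -100% = unlabeled peptide PRC23 positive control; more negative means stronger blocking of peptide binding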)). Details: Purified CAL PDZ; at 60 µM (top of the series).

Activity change, negative = inhibition, inactive:
COC(=O)[C@H](CC(C)C)N1Cc2cc(OC)cc(OC)c2-c2ccccc2S1(=O)=O -2.9%
C#CCN(C(=O)c1ccc(OC2CCN(Cc3ccccn3)CC2)cc1)C1CCCCC1 0.759%
CC(=O)NC(=S)Nc1cc(C(=O)O)ccc1Cl -0.964%
O=C(Cn1nc(Cc2cccnc2)c2ccccc2c1=O)Nc1cc(F)ccc1F -1.18%
N/N=C(\c1ccccc1)c1cc(Br)ccc1N 1.57%
CC1CC1C(=O)N1CCN(S(=O)(=O)c2cc(C(F)(F)F)cc(C(F)(F)F)c2)CC1 (stereo not given) -1.28%
CC(=O)c1c(C)[nH]c(C(=O)OCC(=O)c2ccc3c(c2)NC(=O)CO3)c1C 2.87%
COc1ccc2cc(S(=O)(=O)N3CCCC3)ccc2c1 2.15%
COC(=O)c1ccc(NC(=O)C2CCCO2)cc1 (stereo not given) -7.93%
O=C(NCc1cccc(F)c1)C1CCC(=O)N(C2CCCC2)C1 (stereo not given) 0.319%
CCN(CC)S(=O)(=O)c1ccc(N2CCOCC2)c(NS(=O)(=O)c2ccc(C)c(C)c2)c1 -1.07%
COc1ccccc1N(CC(=O)N1CCN(c2ccc(F)cc2)CC1)S(=O)(=O)c1ccc(C)cc1 5.13%
COc1cc(C(=O)NNC(=O)c2ccc3c(c2)OCCO3)cc(OC)c1OC 3.06%
Cc1ccc(S(=O)(=O)Nc2ccc(NC(=O)Nc3cccc(C(F)(F)F)c3)cc2)cc1 2.06%
Nc1c2c(nc3ccccc13)CSCC2 -1.19%
COc1ccc(NC2CCCN(C(=O)CCc3ccccc3F)C2)cc1 (stereo not given) -3.34%
COc1ccc(S(=O)(=O)N(C(C)=O)c2ccc3oc(=O)sc3c2)cc1 -5.88%
C=CC(=O)NCc1ccc(-c2csnn2)cc1 -0.734%
CCCN1CCN(S(=O)(=O)c2ccc3c(c2)CCC(=O)N3)CC1 -0.697%
CN(C)C1(CNC(=S)Nc2ccccc2C(F)(F)F)CCCCC1 -0.017%
O=C(CC(=O)c1ccccc1)CC(O)(C=Cc1ccccc1)c1ccccc1 (stereo not given) 3.75%
COc1ccc(N2CCN(C(=O)CN3C(=O)NC4(CCCCCC4)C3=O)CC2)cc1 0.759%
CCOC(=O)c1ccc(S(=O)(=O)N2CCN(S(=O)(=O)CC)CC2)cc1 -0.142%
CCCCN1CC(COCc2ccccc2)Oc2cccc(F)c2S1(=O)=O (stereo not given) 0.998%
COc1ccccc1/C=N/NC(=O)c1ccc2c(c1)OCO2 2.16%

Ordered by SMILES length (descending): 3 of the compounds above.
Activity change, negative = inhibition, inactive:
COc1cc(C(=O)NNC(=O)c2ccc3c(c2)OCCO3)cc(OC)c1OC 3.06%
CCCN1CCN(S(=O)(=O)c2ccc3c(c2)CCC(=O)N3)CC1 -0.697%
Nc1c2c(nc3ccccc13)CSCC2 -1.19%

Reference: PubChem BioAssay AID602254 (Broad Institute, 2012)
